In PubChem BioAssay AID1671190 (National Center for Advancing Translational Sciences (NCATS), 2021):
“And” between values parts separate entries of the source, which are not always exact repeats. Equal entries are not always repeated. Among all 580,000 compounds or so, about 6,100 (1.1%) were called active. The inconclusive results got no clear call from the source; some entries with a clear call stand among them for comparison. Calls follow the shape of the dose curve; as a rule, active = well fitted inhibition curve with a large enough effect; inconclusive = small, poorly fitted or top-dose-only effect, or another doubt; inactive = no such curve, though single readings can be large or run the other way. A potency beside an inconclusive call is a rough fit, not a confirmed value.

Amino acid sequences for entries named in this document (tags omitted). A change or cut given only in a name is not applied to a line headed by its entry.
UniProt P18054: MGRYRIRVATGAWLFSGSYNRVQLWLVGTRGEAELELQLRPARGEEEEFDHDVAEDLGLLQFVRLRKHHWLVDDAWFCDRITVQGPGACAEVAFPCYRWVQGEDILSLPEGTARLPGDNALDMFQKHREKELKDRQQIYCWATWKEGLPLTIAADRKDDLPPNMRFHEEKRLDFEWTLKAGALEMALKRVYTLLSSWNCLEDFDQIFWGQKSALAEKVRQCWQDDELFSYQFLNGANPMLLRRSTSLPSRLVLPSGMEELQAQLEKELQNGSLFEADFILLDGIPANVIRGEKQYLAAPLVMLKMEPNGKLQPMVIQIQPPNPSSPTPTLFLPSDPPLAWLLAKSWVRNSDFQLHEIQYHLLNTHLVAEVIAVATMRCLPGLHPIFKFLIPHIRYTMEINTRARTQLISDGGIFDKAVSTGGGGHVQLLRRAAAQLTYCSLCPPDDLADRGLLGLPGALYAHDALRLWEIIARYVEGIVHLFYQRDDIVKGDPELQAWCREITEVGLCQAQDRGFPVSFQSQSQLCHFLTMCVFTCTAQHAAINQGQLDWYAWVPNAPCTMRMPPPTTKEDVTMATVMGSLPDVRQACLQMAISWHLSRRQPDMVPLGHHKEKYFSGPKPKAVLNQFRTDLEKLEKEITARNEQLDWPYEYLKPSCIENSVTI

Target: Polyunsaturated fatty acid lipoxygenase ALOX12 (Homo sapiens) (UniProt P18054)
Assay: Primary qHTS assay for inhibitors of human arachidonate 12S-lipoxygenase (ALOX12): Round 2
Settings: purified 12hLO, xylenol orange hydroperoxide absorbance; activity change, negative = inhibition: at 108 µM (top of the series) unless noted
Summary of the method: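 Purified human 12hLO (150 nM final) in 25 mM Hepes, 0.01% Triton X-100, pH 7.0 was preincubated 15 min at room temperature with compound. Then 40 uM arachidonic acid was added, 30 min. Hydroperoxide was read by Fe-XO absorbance ratio 573/405 nm.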
% is scaled to controls: 0 for no effect and ±100 for the full control effect; potency is read from the fitted curve at half-maximal effect.

SMILES | Potency | activity change, negative = inhibition
COc1cc(CCC(=O)NCc2ccc3c(c2)CCN3C(=O)c2cccc(C)c2)cc(OC)c1OC | inconclusive: 4.47 µM [inhibitor, full curve, poor fit] | –
COc1ccccc1-c1nc(C#N)c(N(C)Cc2ccccc2)o1 | – | inactive: -7.88%
Cc1cc(F)ccc1NC(=O)C1CCN(c2cc(C(F)(F)F)ncn2)CC1 | – | inactive: -1.79%
CCn1nc(C(=O)OC(C)C(=O)c2c[nH]c3ccccc23)c2ccccc2c1=O (centres undefined) | inconclusive: 112 µM [inhibitor, single point] | –
CC1=C[C@@H](CN2CCC(C(N)=O)CC2)[C@H](C(C)C)C[C@H]1Cc1nnc(C)o1 | inconclusive: 112 µM [inhibitor, partial curve, poor fit] | –
O=C(NCc1ccccc1)C(c1ccc(-c2ccccc2)cc1)N1CCN(c2ccccc2F)CC1 (centres undefined) | – | inactive: 12.8%
Cc1cccc(NC(=S)NCc2ccccc2)c1C | inconclusive: 39.8 µM [inhibitor, partial curve, poor fit] | –
COc1cnc(-c2ccccn2)nc1N(C)c1ccccc1 | – | inactive: -6.17%
Cc1ccc(S(=O)(=O)N(CCC#N)C2CCCCC2)c2nsnc12 | inconclusive: 89.1 µM [inhibitor, partial curve, poor fit] | –
O=C(Nc1ccc2oc(-c3ccccc3F)nc2c1)c1cccc(I)c1 | inconclusive: 56.2 µM [inhibitor, partial curve, poor fit] | –
CCC(CO)Oc1cc(NC(=O)c2ccccc2C)c2ncn(C(C)C)c2c1 (centres undefined) | inconclusive: 15.8 µM [inhibitor, full curve] | –
CN1CCC(C(=O)N2CCC3(CC2)OC(=O)N(Cc2ccccc2F)C3(C)c2ccccc2)CC1 (centres undefined) | inconclusive: 31.6 µM [inhibitor, full curve, poor fit] | –
COc1ccc(C2C(C(=O)c3ccco3)=C(O)C(=O)N2CC2CCCO2)c(OC)c1 (centres undefined) | inconclusive: 7.08 µM [inhibitor, full curve, poor fit] | –
Cc1ccc(OCC(=O)N2CC(c3nnc(-c4ccc(C)cc4)o3)C3(CCOCC3)C2)cc1 (centres undefined) | inconclusive: 112 µM [inhibitor, partial curve, poor fit] | –
Cc1nc(NC(=O)CN2CCN(c3ccccc3F)CC2)sc1C(=O)N(C)C | – | inactive: 0%
CC(=O)OCC(=O)[C@@]1(O)CC[C@H]2[C@@H]3CCC4=CC(=O)C=C[C@]4(C)[C@H]3[C@@H](O)C[C@@]21C | – | inactive: 8.86%
COC(=O)c1sc2cc(=O)n(-c3cccc(C(F)(F)F)c3)nc2c1O | inconclusive: 44.7 µM [inhibitor, partial curve, poor fit] | –
CN(C)c1ncnc2ccc(-c3cccnc3)cc12 | inconclusive: 7.94 µM [inhibitor, full curve, poor fit] | –
COc1ccc(C(=O)N/N=C/c2ccc(N3CCOCC3)s2)cc1OC | inconclusive: 79.4 µM [inhibitor, partial curve, poor fit] | –
CCOC(=O)CC1C(=O)NCCN1C(=S)NC(=O)c1ccc(C)c(Br)c1 (centres undefined) | inconclusive: 79.4 µM [inhibitor, single point] | –
O=C(CSc1nc(-c2ccco2)nc2ccccc12)N1CCCCCCC1 | inconclusive: 20 µM [inhibitor, partial curve, poor fit] | –
CCN1CCCC1CNS(=O)(=O)c1c(C)cc(C)cc1C (centres undefined) | inconclusive: 3.98 µM [inhibitor, full curve] | –

SMILES | Potency | activity change, negative = inhibition
COc1ccc(NS(=O)(=O)c2ccc(NS(=O)(=O)c3cccs3)cc2)c(OC)c1 | inconclusive: 158 µM [inhibitor, partial curve, poor fit] | –
O=C1S/C(=C\c2ccc(O)c([N+](=O)[O-])c2)C(=O)N1c1ccccc1Cl | inconclusive: 100 µM [inhibitor, single point] | –
O=C(NCc1cnc2c(c1)CCC2)C1NCCc2[nH]cnc21 (centres undefined) | inconclusive: 5.62 µM [inhibitor, full curve, poor fit] | –
CCCNC(=O)C(C)NC(=O)Cc1coc(-c2ccccc2)n1 (centres undefined) | inconclusive: 44.7 µM [inhibitor, partial curve, poor fit] | –
Cc1ccc(N2CC(C(=O)OCC(=O)Nc3ccc(Cl)cc3)CC2=O)cc1 (centres undefined) | – | inactive: -20.9%
NS(=O)(=O)c1ccc(N/N=C/c2cccc(Cl)c2)c([N+](=O)[O-])c1 | – | inactive: -5.02%
O=C1NC(c2cccc([N+](=O)[O-])c2)=CCN1c1ccccc1O | inconclusive: 39.8 µM [inhibitor, partial curve, poor fit] and inconclusive: 50.1 µM [inhibitor, partial curve, poor fit] | –
O=C(O)COc1ccc(-c2nnn(CC(=O)O)n2)cc1 | inconclusive: 35.5 µM [inhibitor, partial curve] | –
CCN1CCN(S(=O)(=O)c2ccc(Cl)c(C(=O)Nc3ccccc3N3CCOCC3)c2)CC1 | inconclusive: 44.7 µM [inhibitor, partial curve, poor fit] | –
Oc1ccccc1CNC1(Cc2cc(-c3ccccn3)on2)COC1 | – | inactive: -2.93% [at 176 µM]
COc1ccccc1C(=O)N1CCCCCC1CN1CCOCC1 (centres undefined) | – | inactive: 18.7%
C[C@H]1[C@@H]2[C@@H](O)C([C@H](C)C(=O)NCc3cccs3)CC[C@@]2(C)CC[C@@H]1NC(=O)C1CCCCC1 (some centres undefined) | – | inactive: 54.3%
CCOc1cc(S(=O)(=O)N(CC)CC)ccc1Cl | – | inactive: -4.88%
O=C(O)c1ccc(CN2CC[C@H](c3nnc(-c4cccnc4)o3)C2)cc1 | – | inactive: 74.2% [at 176 µM]
O=S(=O)(c1cc(Cl)sc1Cl)N1CCCC1 | inconclusive: 11.2 µM [inhibitor, partial curve, poor fit] | –
Cc1ccc(Cn2c(Oc3ccc(F)cc3)nc3c2c(=O)n(C)c(=O)n3C)cc1 | inconclusive: 50.1 µM [inhibitor, single point] | –
COc1ccc(C(=O)Nc2ccc(NC(=O)c3cccs3)cc2)cc1Cl | – | inactive: -19.3%
O=C1C(N2CCN(S(=O)(=O)c3cc(F)cc(F)c3)CC2)CCN1Cc1ccccn1 (centres undefined) | – | inactive: 11.3%
O=C(c1ccc2c(=O)n(Cc3ccco3)c(=S)[nH]c2c1)N1CCN(c2ccccc2)CC1 | inconclusive: 39.8 µM [inhibitor, partial curve, poor fit] | –
O=C(CSc1nc2c(c(=O)n1-c1ccc(F)cc1)SCC2)NCc1ccco1 | inconclusive: 100 µM [inhibitor, partial curve, poor fit] | –
CCCCN(CC)CCNC(=O)Cn1c(=O)c2cccn2c2cccnc21 | – | inactive: -15.7%
Cc1nn(C)cc1-c1cc(C(=O)O)c2ccccc2n1 | inconclusive: 50.1 µM [inhibitor, partial curve, poor fit] and inconclusive: 39.8 µM [inhibitor, partial curve, poor fit] | –

3 entries out of the list, arranged by count of non-hydrogen atoms, rising:
SMILES | Potency | activity change, negative = inhibition
O=S(=O)(c1cc(Cl)sc1Cl)N1CCCC1 | inconclusive: 11.2 µM [inhibitor, partial curve, poor fit] | –
Oc1ccccc1CNC1(Cc2cc(-c3ccccn3)on2)COC1 | – | inactive: -2.93% [at 176 µM]
CCN1CCN(S(=O)(=O)c2ccc(Cl)c(C(=O)Nc3ccccc3N3CCOCC3)c2)CC1 | inconclusive: 44.7 µM [inhibitor, partial curve, poor fit] | –

Further structures.

SMILES | Potency | activity change, negative = inhibition
CN1CCN(c2oc(-c3ccccc3F)nc2S(=O)(=O)c2ccc3c(c2)OCCO3)CC1 | inconclusive: 28.2 µM [inhibitor, full curve, poor fit] | –
C=CCn1c(=S)[nH]c2sccc2c1=O | inconclusive: 50.1 µM [inhibitor, partial curve, poor fit] | –
Cc1ccc(CCN2C(=O)CCC2(C)C(=O)NCc2ccccc2)cc1 (centres undefined) | – | inactive: 11.3%
Cc1ccccc1N(CC(=O)NCc1ccc2c(c1)OCO2)C(=O)C1CSC(=O)C1 (centres undefined) | – | inactive: -4.95%
O=C(O)C1=NOC2CN(Cc3ccc(F)c(F)c3F)CC12 (centres undefined) | inconclusive: 15.8 µM [inhibitor, full curve, poor fit] | –
O=C(Nc1ccc(Cl)cc1)c1ccc2c(c1)OCO2 | inconclusive: 44.7 µM [inhibitor, partial curve, poor fit] | –
Cc1ccc(N2CCN(C(=O)C3CCC(CNS(=O)(=O)c4ccc(Br)s4)CC3)CC2C)cc1 (centres undefined) | inconclusive: 17.8 µM [inhibitor, partial curve, poor fit] | –
CCOc1ccc2ccccc2c1CNCCCN1CCOCC1 | inconclusive: 39.8 µM [inhibitor, partial curve] | –
C/C(=C\C1CCCCC1)C(NC(=O)c1ccc(C(F)(F)F)cc1)c1ccc(-c2ccccc2)cc1 (centres undefined) | inconclusive: 56.2 µM [inhibitor, single point] | –
COc1ccccc1-c1nccc(NCc2cccs2)n1 | active: 12.6 µM | –
O=C(NCc1ccccc1)NC12CC3CC(CC(C3)C1)C2 | – | inactive: 0%
Cn1cc(-c2cnc3c(NC=O)cc(-c4cccc(C(F)(F)F)c4)cn23)cn1 | inconclusive: 50.1 µM [inhibitor, partial curve, poor fit] | –
O=C(Cc1c[nH]c2ccccc12)NC1CCCNC1=O (centres undefined) | inconclusive: 126 µM [inhibitor, single point] | –
COc1ccc(-c2c3c(nc4sc(C(=O)Nc5ccc(Cl)cc5)c(N)c24)CC(C)(C)CC3=O)cc1 | – | inactive: -20.1%
COc1ccc(-n2c(-c3ccc(F)cc3)cn3c4c(=O)[nH]c(=O)n(C)c4nc23)c(OC)c1 | inconclusive: 35.5 µM [inhibitor, single point] | –
O=c1c(CCc2ccccc2)nc2cnc(N3CCNCC3)nc2n1CCc1ccccc1 | – | inactive: -3.99%
CC(=O)Nc1ccc(C2CC(c3ccc(Cl)cc3)=NN2c2ccccc2)cc1 (centres undefined) | inconclusive: 39.8 µM [inhibitor, partial curve] | –
COc1ccccc1CNC(=O)COC(=O)Cc1ccc(F)cc1 | inconclusive: 126 µM [inhibitor, single point] | –
COc1ccc(C(=O)Nc2ccccc2C(=O)Nc2cccc(C)n2)cc1 | inconclusive: 126 µM [inhibitor, partial curve, poor fit] | –
CC(=O)Nc1ccc(S(=O)(=O)Nc2ccccc2C(=O)NCc2cccnc2)cc1 | – | inactive: -7.24%

Quoted from the listing.
`Cc1ccc(CCN2C(=O)CCC2(C)C(=O)NCc2ccccc2)cc1` (centres undefined) | activity change, negative = inhibition: inactive: 11.3%
`COc1ccc(-c2c3c(nc4sc(C(=O)Nc5ccc(Cl)cc5)c(N)c24)CC(C)(C)CC3=O)cc1` | activity change, negative = inhibition: inactive: -20.1%
